Test results from ChEMBL document CHEMBL4196150, “Structurally Diverse Highly Oxygenated Triterpenoids from the Roots of Ailanthus altissima and Their Cytotoxicity” (J Nat Prod, 2018).

System: HeLa
Assay: Cytotoxicity against human HeLa cells after 72 hrs by MTT assay
Assay type: functional, cell-based

## COc1cc2c(c(OC)c1OC)-c1ccc(OC)c(=O)cc1[C@@H](NC(C)=O)CC2 [COLCHICINE]
  IC50: 27 nM
